From article PMC5165196
Results are given in words; binding and its absence hold for the method and conditions named. In cells and extracts the contact can be indirect. Some binding calls cover weakened binding; strength is not graded here.

The chains behind the UniProt entries cited, without tags or fusion partners. Where a name states a change or a piece, a line headed by the entry shows the natural chain unless it says otherwise. A line that says so, or that is headed by a name, gives the form on record, which may keep a tag or linker.
UniProt P05780: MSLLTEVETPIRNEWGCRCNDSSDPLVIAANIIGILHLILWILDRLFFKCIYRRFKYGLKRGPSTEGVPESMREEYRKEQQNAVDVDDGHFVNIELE
TRAPPC6A-Myc (O75865-2, form named): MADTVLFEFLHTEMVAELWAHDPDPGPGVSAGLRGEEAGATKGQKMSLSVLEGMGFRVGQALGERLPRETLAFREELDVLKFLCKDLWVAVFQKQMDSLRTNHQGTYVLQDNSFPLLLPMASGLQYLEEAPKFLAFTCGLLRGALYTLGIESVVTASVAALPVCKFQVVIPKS

Target: Flag-WSNM2 (influenza A virus A/WSN/33 (H1N1)) (UniProt P05780)
Assay: co-IP

TRAPPC6A-Myc (from UniProt O75865-2 1-173)
binding: binds
